Assay: Sealed system extraction of cork
Parameters: species or system Quercus suber
Details: Cork 0.7 g, Solvent 5 mL, 100° C. 6 hours, 3 cycles

SMILES: O [H2O, water]
- Sealed system Yield (extraction yield) (0% of water in NADES): 4.2%
- Concentration of extract, Cork (sealed system, mextract/vsolvent): 0.0178 g/ml

From patent US20230415070A1, “EUTECTIC COMPOSITIONS, METHODS AND USES THEREOF” (Universidade do Minho, priority 2020, published 2023)
